Reference: patent publication US20170275335 (published 2017)

Experiment: general procedure: Fmoc solid-phase peptide synthesis; 2-chlorotrityl (CTC) resin; HCTU/DIEA; DIPCDI/HOBt for Cys
Conditions: for crude HPLC purity: oxidative folding step; for crude HPLC purity / final HPLC purity: analytical HPLC, UV 220 nm; for step yield / final HPLC purity: purification step
[1] = trifluoroacetic acid salt (Example 21), TFA removed by further RP-HPLC (Example 22)

linaclotide
crude HPLC purity (trifluoroacetic acid salt (Example 21), TFA removed by further RP-HPLC (Example 22), h-0009): 59.92%
crude HPLC purity (trifluoroacetic acid salt (Example 21), TFA removed by further RP-HPLC (Example 22), h-0012): 57%
crude HPLC purity (trifluoroacetic acid salt (Example 21), TFA removed by further RP-HPLC (Example 22), h-0015): 46.02%
crude HPLC purity (trifluoroacetic acid salt (Example 21), TFA removed by further RP-HPLC (Example 22), h-0024): 67.5%
crude HPLC purity (trifluoroacetic acid salt (Example 21), TFA removed by further RP-HPLC (Example 22), h-0027): 69.56%%
crude HPLC purity (trifluoroacetic acid salt (Example 21), TFA removed by further RP-HPLC (Example 22), h-0030): 59.11%
crude HPLC purity (trifluoroacetic acid salt (Example 21), TFA removed by further RP-HPLC (Example 22), h-0033): 42.70%
crude HPLC purity (trifluoroacetic acid salt (Example 21), TFA removed by further RP-HPLC (Example 22), h-0036): 29.43%
crude HPLC purity (trifluoroacetic acid salt (Example 21), TFA removed by further RP-HPLC (Example 22), h-0043): 42.3%
crude HPLC purity (trifluoroacetic acid salt (Example 21), TFA removed by further RP-HPLC (Example 22), h-0046): 35-40%
crude HPLC purity (trifluoroacetic acid salt (Example 21), TFA removed by further RP-HPLC (Example 22), h-0049): 33.9%
crude HPLC purity (trifluoroacetic acid salt (Example 21), TFA removed by further RP-HPLC (Example 22), run 1): 63.38%
step yield (TFA salt): 50%
final HPLC purity (TFA salt): 99.07%
final HPLC purity [1]: 99.6%
step yield [1]: 49%
